Taken from: PubChem BioAssay AID1259279 (Sanger Institute, 2017)
Here is an unselected part of 794 reagents. In the full data, 11 (1.4%) were called active. 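Calls reflect knock-down alone in the vehicle arm, not drug synergy.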 Entries without a mark were called inactive. Viability is capped at 1. The record does not give: the amount of reagent, the time to read-out.

Test: 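Kinase-wide knock-down seeking synergy with BYL719, cetuximab or trametinib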 (primary screen)
Cell system: LS180 human colorectal cancer cells
Reagents: siRNA pool against human genes
Conditions: anchor drug BYL719 at 1 µM, cetuximab at 5 µg/ml or trametinib at 10 nM, or DMSO vehicle only
Detection: 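Viability as a fraction of non-targeting control and as a replicate-averaged robust z-score, with separate synergy scores for BYL719, cetuximab and trametinib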
Reading the numbers: viability z-score, no drug: higher = more viable cells after knock-down; viability, no drug: higher = more viable cells; synergy score with BYL719 and synergy score with cetuximab and synergy score with trametinib: higher = stronger synthetic lethal synergy with drug
Hit rule: 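a knock-down is called active, meaning essential, if its viability z-score in vehicle alone falls below -3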
Calls: active = essential (knock-down alone cuts viability); inactive = no change without drug

gene | viability z-score, no drug | viability, no drug (fraction) | synergy score with BYL719 | synergy score with cetuximab | synergy score with trametinib
DLG3 (GeneID 1741) | 0.86 | 1 | -0.0159 | -0.0414 | -0.0591
SMC1A (GeneID 8243) | -0.706 | 0.829 | 0.106 | 0.0204 | 0.138
CMPK1 (GeneID 51727) | 0.0418 | 0.911 | -0.186 | -0.159 | 0.00427
EPHB4 (GeneID 2050) | 0.86 | 1 | -0.1 | -0.0467 | 0.0493
PRKG1 (GeneID 5592) | 0.86 | 1 | -0.103 | -0.147 | -0.119
FYN (GeneID 2534) | 0.86 | 1 | 0.00376 | -0.0802 | -0.105
TWF1 (GeneID 5756) | 0.86 | 1 | -0.201 | -0.166 | -0.183
PRKAG2 (GeneID 51422) | 0.86 | 1 | -0.141 | -0.147 | -0.0346
MPP1 (GeneID 4354) | 0.86 | 1 | -0.0903 | 0.0831 | 0.0562
STK11 (GeneID 6794) | 0.86 | 1 | -0.137 | -0.154 | -0.0564
ADGRL2 (GeneID 23266) | 0.86 | 1 | -0.189 | -0.166 | -0.0297
PEAK1 (GeneID 79834) | -0.416 | 0.861 | 0.0314 | -0.174 | 0.0042
PIK3R4 (GeneID 30849) | 0.86 | 1 | -0.0894 | -0.0777 | 0.168
MAP3K6 (GeneID 9064) | -0.411 | 0.861 | -0.12 | -0.0617 | -0.0764
PIK3C3 (GeneID 5289) | 0.86 | 1 | -0.0436 | -0.0591 | -0.0515
NAGK (GeneID 55577) | -3.04 (active) | 0.574 | -0.302 | -0.142 | -0.165
JAK1 (GeneID 3716) | 0.792 | 0.993 | 0.0439 | -0.054 | -0.0111
AURKA (GeneID 6790) | -1.74 | 0.716 | 0.0364 | 0.0484 | 0.0508
ACSL6 (GeneID 23305) | -0.122 | 0.893 | -0.125 | -0.136 | -0.21
CDKN1A (GeneID 1026) | 0.86 | 1 | -0.138 | -0.166 | -0.155
